Experimental data taken from US12509734B2, “Systems and methods to assess microbiomes and treatments thereof” (priority 2013, dated 2025).
At least one structure is not confirmed: it was looked up by name or label, or the drawing left a doubt.

Tested on: bacterial vaginosis (BV)
Experiment: Clinical assessment of BV patients after therapy (Amsel criteria, Nugent score, recurrence)
Format: in vivo, human
Description: Patients. Five African American participants were followed at the Vaginitis Clinic at Wayne State University and had been treated for recurrent episodes symptomatic bouts of BV. Patients were enrolled after protocol explanation and written informed consent was obtained. The study was endorsed by the Human Investigational Review Board of Wayne State University. At the time of enrollment, patients were diagnosed with florid symptomatic acute BV, characterized by the presence of at least 3 of the 4 Amsel criteria (homogeneous vaginal discharge, pH elevated above 4.5, clue cells>20%, positive whiff test) and Nugent scores of at least 8.
At this immediate PT visit, patients were given Catch-All Sample Collection Swabs (Epicentre Biotechnologies, Madison, WI) and 15 mL conical tubes for vaginal specimen self-collection. […] Samples from a previously characterized group of recurrent BV patients, sampled before and after treatment, were also evaluated by Lb-qPCR. Reichman et al., Sexually Transmitted Diseases 36: 732-734, 2009.

## CCC[C@@H]1C[C@@H](C(=O)N[C@@H]([C@H]2O[C@H](SC)[C@H](O)[C@@H](O)[C@H]2O)[C@H](C)Cl)N(C)C1 [clindamycin]
P3
  Amsel status after treatment: Amsel negative
P3, 2% for 7 days
  Clinical status three weeks later: full remission
P3, 172 days after enrollment
  Recurrence of BV: did not recur
Five recurrent BV patients, Nugent scores of 0 except Patient 5
  Outcome at return within three weeks by Amsel criteria: clinical cure
